From PubChem BioAssay AID493014 (National Center for Advancing Translational Sciences (NCATS), 2011)
The campaign covered roughly 340,000 compounds. About 170 (0.05%) were called active. The shares of active, inactive and inconclusive entries below differ from those in the screen. Calls follow the shape of the dose curve; as a rule, active = well fitted inhibition curve with a large enough effect in the signal ratio, with a control signal flat (not every such curve was filed as active); inconclusive = small, poorly fitted or top-dose-only effect, or effect the other way, or a change in a side signal; inactive = flat fitted curve, though single readings scatter; the % refers to the signal ratio. Where the call is inconclusive, the potency comes from a doubtful curve fit.

assay: qHTS Assay to Find Inhibitors of Chronic Active B-Cell Receptor Signaling; details: ABC-DLBCL IkBa-CBG/CBR reporter, luminescence ratio (green luciferase fused to IkBa over red control in TMD8 lymphoma cells), 4 h; activity change, negative = inhibition: at 46.1 µM (top of the series) unless noted;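 as to activity change, negative = inhibition: plate controls were basal doxycycline-induced cells for no effect and cells given 10 µM MG132 for full effect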
In short: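 TMD8 ABC-DLBCL cells carrying doxycycline-inducible green luciferase fused to IkappaBalpha plus unfused red luciferase were exposed to compounds (up to 46 uM) for 4 hrs at 37C. Activity came from the overlap-corrected green/red luminescence ratio.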
Potency is read from the fitted curve at half-maximal effect.

| Structure (SMILES) | activity change, negative = inhibition | Potency |
| --- | --- | --- |
| O=[N+]([O-])c1cnccc1NC1CCCCC1 | inconclusive: -2.39% |  |
| N#C/C(=C/c1ccc(Sc2nc3ccccc3[nH]2)o1)c1ccccc1F |  | inconclusive: 14.6 µM [falling, partial curve, poor fit] |
| COc1ccc(C2Nc3ccccc3-c3cc(C)nn32)c(OC)c1 (stereo not given) | inconclusive: 25.4% |  |
| COc1cc(OC)cc(C(=O)NCCNc2nc3cc(C)cc(C)c3cc2C#N)c1 | inactive |  |
| O=C(Nc1ccc(-c2nc3c(ccc4ccccc43)o2)cc1)c1ccco1 | inactive |  |
| CCC(C(=O)Nc1ccccc1N1CCCC1)c1ccccc1 (stereo not given) | inactive |  |
| CCNC(=O)CC1C(=O)N(c2ccc(F)cc2)C(=O)N1CCC(C)C (stereo not given) |  | inconclusive: 29.1 µM [falling, single point] |
| COc1ccc2oc(=Nc3ccccc3)c(-c3nc4ccccc4[nH]3)cc2c1 |  | inconclusive: 29.1 µM [falling, single point] |
| O=C(N/N=C/c1ccccn1)c1cc(-c2ccc(Cl)cc2)nc2ccccc12 |  | inconclusive: 23.1 µM [falling, partial curve, poor fit] |
| COc1cccc(NC(=O)c2cnc(SC)nc2C)c1 | inconclusive: -7.15% |  |
| Clc1ccccc1C1=CC(c2ccco2)n2nnnc2N1 (stereo not given) | inactive |  |
| Cc1ccc(NC(=O)c2ccc(Cn3cc(Br)cn3)o2)cc1 |  | inconclusive: 6.51 µM [rising, partial curve, poor fit] |
| Cc1cc(C)cc(OCCN2CCOCC2)c1 | inactive |  |
| CN1CCN(NC(=O)c2cccc(S(=O)(=O)N3CCCCCC3)c2)CC1 | inactive |  |
| COc1ccc(-c2csc(NC(=S)NC(=O)c3ccc(S(=O)(=O)N(C)C)cc3)n2)cc1OC | inconclusive: -16.7% |  |
| C1CCC(C23CC4CC(CC(C4)C2)C3)NC1 (stereo not given) |  | inconclusive: 1.64 µM [falling, partial curve, poor fit] |
| NC(=O)c1nsc(C(=O)N(CC(=O)NCc2ccc(F)cc2)Cc2ccco2)c1N |  | inconclusive: 20.6 µM [falling, single point] |
| COc1ccc(C)cc1NC(=O)c1cc2cc3ccc(C)cc3nc2o1 |  | inconclusive: 15.8 µM [falling, partial curve] |
| O=C(Nc1nnc(C2=COCCO2)o1)c1ccc(Cl)cc1 |  | inconclusive: 25.9 µM [falling, single point] |
| COc1ccc(-c2sc3ccc(OC)cc3c2C#CCCO)cc1 | inconclusive: 16.9% |  |
| O=C(O)CCCCCNc1ncnc2ccc(Br)cc12 |  | inconclusive: 1.78 µM [falling, full curve, poor fit] |
| O=C(Nc1cccc(O)c1)c1c(O)c2ccccc2[nH]c1=O |  | inconclusive: 31.6 µM [falling, single point] |
| O=C(NCCN1CCOCC1)c1ccc(-c2ccccc2)cc1 | inactive |  |
| Cc1ccc(-n2ccc(-c3nn(-c4ccccc4)ccc3=O)n2)cc1 |  | inconclusive: 22.4 µM [falling, partial curve, poor fit] |
| C=CCN(c1ccccc1)S(=O)(=O)c1cccc(C(=O)N(CC)CC(=O)Nc2c(F)cccc2F)c1 | inactive |  |

Already shown: entries from further up.

| Structure (SMILES) | activity change, negative = inhibition | Potency |
| --- | --- | --- |
| Cc1ccc(NC(=O)c2ccc(Cn3cc(Br)cn3)o2)cc1 |  | inconclusive: 6.51 µM [rising, partial curve, poor fit] |
| Cc1cc(C)cc(OCCN2CCOCC2)c1 | inactive |  |

Next part.

| Structure (SMILES) | activity change, negative = inhibition | Potency |
| --- | --- | --- |
| COc1ccccc1NC(=O)C(=O)NNS(=O)(=O)c1ccc2ccccc2c1 |  | inconclusive: 11.2 µM [falling, partial curve] |
| CCOC(=O)C(C)N1C(=O)S/C(=C/c2ccc3c(c2)n(C)c(=O)n3C)C1=O (stereo not given) |  | inconclusive: 12.6 µM [falling, partial curve] |
| CCOC(=O)CN(C(=O)CSc1nnc(-c2cccc(OC)c2)o1)c1ccc(F)cc1 | inconclusive: -1.43% |  |
| Cc1nn(-c2ccccn2)c2c1C(c1c(F)cccc1Cl)C1=C(N2)c2ccccc2C1=O (stereo not given) | inconclusive: -2.59% |  |
| COc1ccc(NC(=O)c2cc([N+](=O)[O-])ccc2NC(=O)CNCc2ccccn2)c(OC)c1 | inconclusive: -29.8% |  |
| COc1ccc(NC(=O)/C(C#N)=C/c2ccc3c(c2)n(C)c(=O)n3C)cc1 | inconclusive: 2.8% |  |
| O=C(Nc1nc(-c2ccc(Oc3ccccc3)cc2)cs1)C1=COCCO1 | inconclusive: 18.7% |  |
| COc1ccc(C2=CCN3CCCCC3C2)c(-c2ccc(OC)c(OC)c2)c1 (stereo not given) | inconclusive: -0.887% |  |
| Cc1ccc(S(=O)(=O)N2CCCN(S(=O)(=O)C3CCS(=O)(=O)C3)CC2)cc1 (stereo not given) | inconclusive: 1.38% |  |
| COc1ccc(C(=O)C2CCCN(Cc3cccn3-c3nccs3)C2)cc1F (stereo not given) | inactive |  |
| CCOC(=O)Cn1c(C)c(Br)c(=O)c2cccc(C)c21 | inconclusive: 5.36% |  |
| Cc1ccc(-c2noc(C3CCCN(C(=O)c4ccccc4)C3)n2)o1 (stereo not given) | inactive |  |
| COc1ccc(NC(=S)NCc2ccccc2Cl)c(OC)c1 |  | inconclusive: 12.6 µM [falling, single point] |
| Cc1ccccc1NC(=O)/C(C#N)=C/c1ccc[nH]1 |  | inconclusive: 22.4 µM [falling, partial curve, poor fit] |
| COc1ccc2cc(-c3cccnc3)ncc2c1 |  | inconclusive: 18.4 µM [falling, single point] |
| CCOc1ccc2nc(N(Cc3cccnc3)C(=O)c3cccs3)sc2c1 |  | inconclusive: 0.316 µM [rising, full curve] |
| CCC(C)(C)C1CCC(=NNC(=O)c2ccoc2C)CC1 (stereo not given) |  | inconclusive: 4.61 µM [falling, partial curve, poor fit] |
| Cc1c(Cl)ccc2sc(N3CCN(C(=O)CCS(=O)(=O)c4ccc(F)cc4)CC3)nc12 | inactive |  |
| CCC1=NN(C(=O)c2ccc(C)cc2)C(O)(c2ccc(Br)cc2)C1 (stereo not given) | inconclusive: -1.96% |  |
| C=CCn1c(-c2ccc(C)cc2)nc2ccccc21 | inactive |  |
| COc1ccc(-c2nc3ccccc3n2Cc2ccccc2)cc1 | inactive |  |
| O=C(Nc1ccccc1)NC1CCCc2ccccc21 (stereo not given) | inconclusive: -0.179% |  |
| Cc1cc(NC(=O)c2ccc3c(c2)OCCO3)no1 | inconclusive: -27.3% |  |
| COc1nc(/C=C/N(C)C)c([N+](=O)[O-])c(OC)n1 | inactive |  |
| CCCC(NC(=O)C(C)NC(=O)CO/N=C1\C=C2CCC3C4CCC(C(C)=O)[C@@]4(C)CCC3[C@@]2(C)CC1)C(=O)O (stereo not given in full) | inactive |  |
